Publication PMC7211001
No constants are given. Whether binding was seen depends on the method and setting. Binding seen in cells or lysates may run through a third protein. Some binding calls cover weakened binding; strength is not graded here. Where a sequence is shown, tags or fusion partners need not be part of it.

Experiments:
[1] = molecular target: Flag-p62 wt (sequestosome 1; Sqstm1) (UniProt Q64337); test: co-IP; HEK293T cells co-transfected with Flag-p62 (wt or Δ69-251) and HA-ATF2 for 24 h; with or without isoproterenol (10 μM, half an hour before collection); 1500 μg lysate with anti-Flag-agarose overnight; blot for HA and Flag
Flag-p62^Δ69-251 = Flag-p62^Δ69-251 (UniProt Q64337); test: as above

binding [1]: binds
binding (Flag-p62^Δ69-251): binds
B1: HA-ATF2 (activating transcription factor 2) (protein, UniProt P16951 1-487)
chain: MSDDKPFLCTAPGCGQRFTNEDHLAVHKHKHEMTLKFGPARNDSVIVADQTPTPTRFLKNCEEVGLFNELASPFENEFKKASEDDIKKMPLDLSPLATPIIRSKIEEPSVVETTHQDSPLPHPESTTSDEKEVPLAQTAQPTSAIVRPASLQVPNVLLTSSDSSVIIQQAVPSPTSSTVITQAPSSNRPIVPVPGPFPLLLHLPNGQTMPVAIPASITSSNVHVPAAVPLVRPVTMVPSVPGIPGPSSPQPVQSEAKMRLKAALTQQHPPVTNGDTVKGHGSGLVRTQSEESRPQSLQQPATSTTETPASPAHTTPQTQNTSGRRRRAANEDPDEKRRKFLERNRAAASRCRQKRKVWVQSLEKKAEDLSSLNGQLQSEVTLLRNEVAQLKQLLLAHKDCPVTAMQKKSGYHTADKDDSSEDLSVPSSPHTEAIQHSSVSTSNGVSSTSKAEAVATSVLTQMADQSTEPALSQIVMAPPSQAQPSGS
